# According to patent US20180009892A1:
# By UniProt entry, the sequences of proteins in these tests, tags left out. Where a name states a change or a piece, a line headed by the entry shows the natural chain unless it says otherwise.
# UniProt Q01973: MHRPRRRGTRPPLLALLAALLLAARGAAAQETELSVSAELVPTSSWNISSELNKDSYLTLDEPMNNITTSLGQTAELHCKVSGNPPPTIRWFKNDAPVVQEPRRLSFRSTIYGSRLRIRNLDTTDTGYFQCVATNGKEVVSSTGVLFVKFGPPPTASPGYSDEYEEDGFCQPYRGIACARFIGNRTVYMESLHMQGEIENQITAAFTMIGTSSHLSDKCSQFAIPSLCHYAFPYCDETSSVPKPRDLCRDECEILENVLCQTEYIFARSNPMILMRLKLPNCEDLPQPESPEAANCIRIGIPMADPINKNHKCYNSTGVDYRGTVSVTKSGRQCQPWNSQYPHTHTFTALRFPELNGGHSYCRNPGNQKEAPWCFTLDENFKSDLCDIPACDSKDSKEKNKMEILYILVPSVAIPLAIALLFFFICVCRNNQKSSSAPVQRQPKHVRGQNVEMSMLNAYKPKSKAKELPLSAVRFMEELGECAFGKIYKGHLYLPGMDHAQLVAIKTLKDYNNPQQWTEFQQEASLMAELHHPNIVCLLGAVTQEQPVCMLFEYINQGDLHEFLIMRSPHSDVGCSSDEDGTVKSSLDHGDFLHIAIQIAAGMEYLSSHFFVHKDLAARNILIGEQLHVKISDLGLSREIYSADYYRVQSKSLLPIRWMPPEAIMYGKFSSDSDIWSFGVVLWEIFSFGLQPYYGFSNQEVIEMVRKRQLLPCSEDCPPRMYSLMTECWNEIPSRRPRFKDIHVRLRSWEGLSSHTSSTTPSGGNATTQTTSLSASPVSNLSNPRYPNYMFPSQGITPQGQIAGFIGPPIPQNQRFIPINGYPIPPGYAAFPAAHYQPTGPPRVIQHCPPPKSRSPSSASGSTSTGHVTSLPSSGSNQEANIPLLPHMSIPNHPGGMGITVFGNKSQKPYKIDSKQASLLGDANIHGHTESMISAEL
# Results are given in words; binding and its absence hold for the method and conditions named. Some binding calls cover weakened binding; strength is not graded here.
# What was measured:
# [1] = target: human ROR1 on the cell surface (human) (UniProt Q01973); assay: flow cytometry, CLL cells of patient 13, isotype control MFI subtracted
# [2] = target: human ROR1 on the cell surface (human) (UniProt Q01973); assay: cell ELISA, phage
# [3] = target: human ROR1 extracellular domain (ECD) protein (human) (UniProt Q01973); assay: protein ELISA, phage
Binder,binding [1],binding [2],binding [3]
"Antibody 601-14 (antibody, V domains shown) VH: QVQLVQSGAEVKKPGESLKISCKDSGYSFTNYWLGWVRQMPGKGLEWMGIIYPGDSDTRYSPSFRGQVTISADKSISTAYLQWSSLKASDTAMYYCARLNLATHTAFDIWGQGTTVTVSS VL: QSVLTQPASVSGSPGQSITISCTGTSSDVGGYNYVSWYQQHPGKAPKLMIYDVSNRPSGVSNRFSGSKSGNTASLTISGLQAEDEADYYCSSYTSSSTLWVFGGGTKLTVLG",binds,,
"P601-128 (scFv, V domains shown) VH: EVQLVQSGAEVKKPGESLKISCKGSGYSFSRYWIGWVRQMPGKGLEWMGIIYPRDSDTRYSPSFQGQVTISADKSISTAYLQWSSLKASDTAMYYCATPVVTAGAFDIWGQGTMVTVSS VL: DIQMTQSPSSVSASVGDRVTITCRASQGISSWLAWYQQKPGKAPKLLIYAASSLQSGVPSRFSGSGSGTDFTLTISSLQPEDFATYYCQQANSFPLTFGGGTKVEIK",binds,binds,binds
